Test results reported in article doi:10.1101/2022.11.03.515015.
These are yes or no findings as the source states them, for the method shown.

Amino acid sequences for entries named in this document (tags omitted).
UniProt O95071: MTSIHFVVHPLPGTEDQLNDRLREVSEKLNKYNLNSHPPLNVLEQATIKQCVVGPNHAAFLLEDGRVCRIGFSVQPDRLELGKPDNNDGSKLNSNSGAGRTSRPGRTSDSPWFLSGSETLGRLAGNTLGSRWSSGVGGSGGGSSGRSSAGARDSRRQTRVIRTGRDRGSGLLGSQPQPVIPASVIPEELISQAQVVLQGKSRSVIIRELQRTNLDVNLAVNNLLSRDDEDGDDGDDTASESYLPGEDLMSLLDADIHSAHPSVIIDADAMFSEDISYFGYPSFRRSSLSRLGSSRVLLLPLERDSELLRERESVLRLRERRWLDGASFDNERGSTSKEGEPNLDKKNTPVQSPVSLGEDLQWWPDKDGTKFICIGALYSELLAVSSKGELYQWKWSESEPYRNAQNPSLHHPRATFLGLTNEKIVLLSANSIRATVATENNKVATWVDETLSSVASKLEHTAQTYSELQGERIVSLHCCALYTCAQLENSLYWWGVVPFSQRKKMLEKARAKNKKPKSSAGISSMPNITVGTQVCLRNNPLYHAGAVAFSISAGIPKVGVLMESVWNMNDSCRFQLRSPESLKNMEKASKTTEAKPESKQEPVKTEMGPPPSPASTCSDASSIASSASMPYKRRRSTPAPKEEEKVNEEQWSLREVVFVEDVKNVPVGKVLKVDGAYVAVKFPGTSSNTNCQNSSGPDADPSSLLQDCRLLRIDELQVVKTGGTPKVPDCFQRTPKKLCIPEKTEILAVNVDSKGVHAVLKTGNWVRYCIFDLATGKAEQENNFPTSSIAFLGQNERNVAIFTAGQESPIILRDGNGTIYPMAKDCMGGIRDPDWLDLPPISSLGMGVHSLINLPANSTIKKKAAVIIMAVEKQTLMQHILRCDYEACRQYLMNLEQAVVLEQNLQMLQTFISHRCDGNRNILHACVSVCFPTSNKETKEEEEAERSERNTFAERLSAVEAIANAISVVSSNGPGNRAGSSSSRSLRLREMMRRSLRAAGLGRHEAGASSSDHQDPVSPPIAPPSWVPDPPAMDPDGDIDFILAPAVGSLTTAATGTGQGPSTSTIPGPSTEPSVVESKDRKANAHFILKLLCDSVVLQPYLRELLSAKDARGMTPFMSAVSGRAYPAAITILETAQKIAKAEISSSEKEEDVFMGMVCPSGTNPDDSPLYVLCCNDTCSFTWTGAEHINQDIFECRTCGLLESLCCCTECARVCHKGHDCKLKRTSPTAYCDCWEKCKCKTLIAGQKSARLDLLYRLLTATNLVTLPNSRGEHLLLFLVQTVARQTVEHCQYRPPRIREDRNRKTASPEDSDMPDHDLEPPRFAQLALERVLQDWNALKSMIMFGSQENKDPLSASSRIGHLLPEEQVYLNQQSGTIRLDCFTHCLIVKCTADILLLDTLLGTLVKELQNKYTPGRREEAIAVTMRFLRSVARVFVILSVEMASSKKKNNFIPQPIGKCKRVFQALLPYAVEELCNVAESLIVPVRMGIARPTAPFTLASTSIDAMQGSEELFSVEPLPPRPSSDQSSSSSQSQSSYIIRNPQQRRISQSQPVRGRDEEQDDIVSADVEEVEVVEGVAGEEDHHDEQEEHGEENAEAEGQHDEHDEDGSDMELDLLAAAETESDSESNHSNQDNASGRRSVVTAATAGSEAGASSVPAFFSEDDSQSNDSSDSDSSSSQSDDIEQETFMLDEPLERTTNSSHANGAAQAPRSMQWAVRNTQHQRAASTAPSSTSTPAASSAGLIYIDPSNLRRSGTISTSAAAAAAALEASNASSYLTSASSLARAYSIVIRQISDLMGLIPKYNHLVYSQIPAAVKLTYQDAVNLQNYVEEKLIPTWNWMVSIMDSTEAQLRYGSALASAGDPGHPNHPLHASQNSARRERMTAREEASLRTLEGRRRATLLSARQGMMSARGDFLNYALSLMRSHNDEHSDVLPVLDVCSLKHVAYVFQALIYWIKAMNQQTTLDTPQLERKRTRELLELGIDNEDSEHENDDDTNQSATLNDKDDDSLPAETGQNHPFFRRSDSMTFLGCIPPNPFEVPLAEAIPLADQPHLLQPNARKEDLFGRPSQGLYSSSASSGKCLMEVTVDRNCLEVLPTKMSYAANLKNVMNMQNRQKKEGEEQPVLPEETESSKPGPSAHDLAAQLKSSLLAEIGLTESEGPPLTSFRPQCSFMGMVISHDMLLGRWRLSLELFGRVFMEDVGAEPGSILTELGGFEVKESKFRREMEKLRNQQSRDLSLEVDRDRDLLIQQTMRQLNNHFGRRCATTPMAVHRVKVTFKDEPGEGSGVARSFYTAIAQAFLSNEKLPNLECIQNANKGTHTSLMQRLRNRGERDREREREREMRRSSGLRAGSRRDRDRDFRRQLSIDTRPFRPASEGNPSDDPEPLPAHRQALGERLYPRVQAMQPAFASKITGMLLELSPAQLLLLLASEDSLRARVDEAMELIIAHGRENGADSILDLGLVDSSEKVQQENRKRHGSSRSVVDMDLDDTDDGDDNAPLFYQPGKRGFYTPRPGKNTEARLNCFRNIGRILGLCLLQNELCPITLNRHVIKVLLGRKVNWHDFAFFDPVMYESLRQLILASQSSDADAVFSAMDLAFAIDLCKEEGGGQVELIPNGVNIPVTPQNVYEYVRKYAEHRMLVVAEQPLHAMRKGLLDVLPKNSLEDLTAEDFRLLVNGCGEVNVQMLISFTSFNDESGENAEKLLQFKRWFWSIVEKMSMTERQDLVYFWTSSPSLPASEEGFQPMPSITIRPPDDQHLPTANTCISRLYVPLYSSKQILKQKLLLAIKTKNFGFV

Target: full-length human UBR5 (construct for activity assays: double strep tag, 3C site, UBR5) (human) (UniProt O95071)
Assay: co-sedimentation

B1: Securin (protein, UniProt O95997 1-202)
chain: MATLIYVDKENGEPGTRVVAKDGLKLGSGPSIKALDGRSQVSTPRFGKTFDAPPALPKATRKALGTVNRATEKSVKTKGPLKQKQPSFSAKKMTEKTVKAKSSVPASDDAYPEIEKFFPFNPLDFESFDLPEEHQIAHLPLSGVPLMILDEERELEKLFQLGPPSPVKMPSPPWESNLLQSPSSILSTLDVELPPVCCDIDI
modifications: FAM label
binding: no binding (tested: 40 pmol)
